In patent publication US20260083697A1, “COMPOSITION AND USE OF SAME FOR CONTROLLING INFECTIONS IN AQUATIC ORGANISMS” (priority 2022, published 2026):
Some of these results come from one statement about several compounds together. The name of at least one read-out is uncertain.

system: Gyrodactylus turnbulli; format: cell-based; settings: commercial FAEE, concentration between 18.75 μM and 75 μM, 1% Kolliphor and sonication, up to 240 min
Text: FIGS. 2A-2C include graphs showing antiparasitic effect of residue extract and preparations (FFA & FAEE) with and without the addition of the food-grade detergent Kolliphor (K) and sonication(S) prior to analysis. […] Gyrodactylus turnbulli was exposed to the following preparations: (2A) residue extract (RE) and RE with Kolliphor and sonication (RE-K-S); (2B) FFA and FFA with Kolliphor and sonication (FFA-K-S); and (2C) FAEE with Kolliphor and sonication (FAEE-K-S). The numbers represent the tested concentrations of the solution applied at μL mL^−1. n=3 wells with at least five observed parasites per well.
FIG. 5 includes a vertical bar graph showing dose-dependent antiparasitic effect of fatty acids in their ethyl ester form as tested in situ. Selected were the four FAs that appeared at the highest level in the residue and its extracts and preparations, as pure commercial compounds: myristic acid (14:0), palmitic acid (16:0), palmitoleic acid (16:1n7), and EPA (20:5n3). The analysis was carried out with the addition of Kolliphor (K) and sonication (S). Time to reach 50% parasite mortality was recorded.
FIG. 11A-11B include graphs showing in-situ antiparasitic effect against Gyrodactylus by commercial FAEEs. Gyrodactylus was exposed by commercial FAEEs at 18.75, 37.5, and 75 μM along with addition of 1% Kolliphor (K) and sonication(S).
An in-situ assay was carried out, as described previously (Kim et al., 2021). Briefly, infected guppies (as confirmed by observation under a stereomicroscope (Richards and Chubb 1996)) were anesthetized with 250 ppm of Sedanol (Stockton-Aquamor Ltd., Israel) (Zorin et al., 2019) followed by euthanasia (brain pithing). Tail fin clips with more than four parasites were excised and transferred, using watchmaker's forceps, to a single well of a 24-well plate containing standardized water (STW: dechlorinated tap water with Na2S2O3 at 0.37 mg L^−1 followed by autoclaving). Ethanol and STW, as well as the relevant solvents and preparation protocol used for extraction, were used as negative controls in each trial. Parasites were observed under an inverted microscope (Axiovert 40 CFL, Carl Zeiss AG) for 4 h, at intervals ranging from 5 to 30 min, during which detached and dead parasites were recorded. A total of 12-15 parasites (with three replicates) were analyzed for each treatment concentration.
Residue extract and preparations were tested at the following concentrations: residue extract at 2.5, 5 and 10 μL mL^−1, and FFA and FAEE at 2.5 and 5 μL mL^−1 (in ethanol). Selected pure active compounds were analyzed, based on the analysis of the FAEE composition. These included the ethyl esters of the following fatty acids: myristic acid (14:0), palmitic acid (16:0), palmitoleic acid (16:1n7), and EPA ([…]) (obtained from Nu-Check, USA). Tested concentrations were calculated based on the amount of active compound in the FA profile of ethyl esters according to the GC-results.

| SMILES | mortality |
| --- | --- |
| CCCCC/C=C\C/C=C\CCCCCCCC(=O)OCC [18:2n6, ethyl linoleate] | at least 50% |
| CCCCCC[C@@H](O)C/C=C\CCCCCCCC(=O)OCC [18:1-OH, ethyl ricinoleate] | at least 50% |
| CCCCCC(=O)OCC [6:0, ethyl hexanoate] | at least 50% |
| CCCCCCCCC(=O)OCC [9:0, ethyl nonanoate] | at least 50% |
| CCCCCCCC(=O)OCC [8:0, ethyl octanoate] | at least 50% |
| CCCCCCCCCCCC(=O)OCC [12:0, ethyl laurate] | at least 50% |

same assay, conditions: commercial FAEE, concentration increased to 150 μM or 300 μM

| SMILES | mortality |
| --- | --- |
| CCCCCCCCCCCCCCCC(=O)OCC [16:0, ethyl palmitate] | at least 100% |
| CCCCCCCCCCCCCC(=O)OCC [14:0, ethyl myristate] | at least 100% |
| CCCC(=O)OCC [4:0, ethyl butyrate] | at least 100% |
